The list shows a part of the results.
Key:
Assay in all cases: log2 fold change, soluble protein after heating vs DMSO (PISA); higher = thermal stabilisation; K562 lysate, 10 uM; active = over 0.2 and 3.5 SD of the protein, either way, in both replicates (recomputed)
vemurafenib = compound: CCCS(=O)(=O)Nc1ccc(F)c(C(=O)c2c[nH]c3ncc(-c4ccc(Cl)cc4)cc23)c1F [vemurafenib]
Outline: (§1)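 Quantification was by TMTpro 16plex LC-MS/MS with equalised channel sums, applied to the supernatant after 21,000xg for 90 min. Samples were crude K562 extract at 1 mg/mL protein in PBS pH 7.4 with 1 mM MgCl2, treated with 10 μM compound for 30 min, heated for 3 min across 48°C-58°C, pooled and brought to 0.5% NP-40 at 4°C. Values are log-two fold changes in thermal stability relative to solvent controls, from duplicates.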

Sequences of proteins named here, by UniProt entry; tags and fusion partners are left off. A change or cut given only in a name is not applied to a line headed by its entry.
UniProt Q99766: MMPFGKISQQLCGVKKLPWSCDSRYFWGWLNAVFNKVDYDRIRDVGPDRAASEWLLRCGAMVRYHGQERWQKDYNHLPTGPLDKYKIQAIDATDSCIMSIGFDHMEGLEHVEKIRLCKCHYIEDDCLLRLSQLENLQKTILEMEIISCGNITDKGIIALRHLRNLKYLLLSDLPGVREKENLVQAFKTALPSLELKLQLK
UniProt Q08495: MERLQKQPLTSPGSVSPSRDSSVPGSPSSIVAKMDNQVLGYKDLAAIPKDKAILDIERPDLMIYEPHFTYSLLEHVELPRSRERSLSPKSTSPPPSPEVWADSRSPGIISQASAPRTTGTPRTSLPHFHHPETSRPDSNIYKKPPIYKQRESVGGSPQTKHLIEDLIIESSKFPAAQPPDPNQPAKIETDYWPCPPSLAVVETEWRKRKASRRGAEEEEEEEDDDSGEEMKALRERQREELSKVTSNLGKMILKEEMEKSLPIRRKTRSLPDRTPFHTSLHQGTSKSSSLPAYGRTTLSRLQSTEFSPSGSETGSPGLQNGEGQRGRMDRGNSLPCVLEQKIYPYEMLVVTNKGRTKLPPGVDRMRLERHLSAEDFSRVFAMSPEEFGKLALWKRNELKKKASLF
UniProt Q86Y56: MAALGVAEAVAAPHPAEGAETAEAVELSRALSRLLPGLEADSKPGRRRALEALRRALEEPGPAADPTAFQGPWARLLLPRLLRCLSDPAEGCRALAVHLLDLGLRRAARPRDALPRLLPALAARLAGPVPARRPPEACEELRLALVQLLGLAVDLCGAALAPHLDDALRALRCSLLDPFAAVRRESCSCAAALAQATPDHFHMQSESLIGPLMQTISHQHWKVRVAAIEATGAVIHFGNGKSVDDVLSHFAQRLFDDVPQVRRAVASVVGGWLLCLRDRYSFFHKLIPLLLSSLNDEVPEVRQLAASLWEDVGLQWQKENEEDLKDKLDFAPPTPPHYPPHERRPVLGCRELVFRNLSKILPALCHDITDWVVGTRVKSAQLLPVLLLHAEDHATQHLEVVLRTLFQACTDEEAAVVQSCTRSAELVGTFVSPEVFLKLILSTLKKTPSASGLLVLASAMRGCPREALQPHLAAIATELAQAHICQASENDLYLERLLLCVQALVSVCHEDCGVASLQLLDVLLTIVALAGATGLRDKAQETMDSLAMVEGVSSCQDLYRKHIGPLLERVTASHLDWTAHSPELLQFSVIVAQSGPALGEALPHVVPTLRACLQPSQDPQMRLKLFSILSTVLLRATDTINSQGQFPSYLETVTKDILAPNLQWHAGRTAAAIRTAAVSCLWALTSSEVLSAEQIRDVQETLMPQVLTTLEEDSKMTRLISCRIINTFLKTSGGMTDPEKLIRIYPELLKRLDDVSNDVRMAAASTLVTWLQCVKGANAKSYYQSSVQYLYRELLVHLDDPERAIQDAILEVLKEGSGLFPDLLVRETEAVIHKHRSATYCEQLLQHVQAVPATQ
UniProt Q92608: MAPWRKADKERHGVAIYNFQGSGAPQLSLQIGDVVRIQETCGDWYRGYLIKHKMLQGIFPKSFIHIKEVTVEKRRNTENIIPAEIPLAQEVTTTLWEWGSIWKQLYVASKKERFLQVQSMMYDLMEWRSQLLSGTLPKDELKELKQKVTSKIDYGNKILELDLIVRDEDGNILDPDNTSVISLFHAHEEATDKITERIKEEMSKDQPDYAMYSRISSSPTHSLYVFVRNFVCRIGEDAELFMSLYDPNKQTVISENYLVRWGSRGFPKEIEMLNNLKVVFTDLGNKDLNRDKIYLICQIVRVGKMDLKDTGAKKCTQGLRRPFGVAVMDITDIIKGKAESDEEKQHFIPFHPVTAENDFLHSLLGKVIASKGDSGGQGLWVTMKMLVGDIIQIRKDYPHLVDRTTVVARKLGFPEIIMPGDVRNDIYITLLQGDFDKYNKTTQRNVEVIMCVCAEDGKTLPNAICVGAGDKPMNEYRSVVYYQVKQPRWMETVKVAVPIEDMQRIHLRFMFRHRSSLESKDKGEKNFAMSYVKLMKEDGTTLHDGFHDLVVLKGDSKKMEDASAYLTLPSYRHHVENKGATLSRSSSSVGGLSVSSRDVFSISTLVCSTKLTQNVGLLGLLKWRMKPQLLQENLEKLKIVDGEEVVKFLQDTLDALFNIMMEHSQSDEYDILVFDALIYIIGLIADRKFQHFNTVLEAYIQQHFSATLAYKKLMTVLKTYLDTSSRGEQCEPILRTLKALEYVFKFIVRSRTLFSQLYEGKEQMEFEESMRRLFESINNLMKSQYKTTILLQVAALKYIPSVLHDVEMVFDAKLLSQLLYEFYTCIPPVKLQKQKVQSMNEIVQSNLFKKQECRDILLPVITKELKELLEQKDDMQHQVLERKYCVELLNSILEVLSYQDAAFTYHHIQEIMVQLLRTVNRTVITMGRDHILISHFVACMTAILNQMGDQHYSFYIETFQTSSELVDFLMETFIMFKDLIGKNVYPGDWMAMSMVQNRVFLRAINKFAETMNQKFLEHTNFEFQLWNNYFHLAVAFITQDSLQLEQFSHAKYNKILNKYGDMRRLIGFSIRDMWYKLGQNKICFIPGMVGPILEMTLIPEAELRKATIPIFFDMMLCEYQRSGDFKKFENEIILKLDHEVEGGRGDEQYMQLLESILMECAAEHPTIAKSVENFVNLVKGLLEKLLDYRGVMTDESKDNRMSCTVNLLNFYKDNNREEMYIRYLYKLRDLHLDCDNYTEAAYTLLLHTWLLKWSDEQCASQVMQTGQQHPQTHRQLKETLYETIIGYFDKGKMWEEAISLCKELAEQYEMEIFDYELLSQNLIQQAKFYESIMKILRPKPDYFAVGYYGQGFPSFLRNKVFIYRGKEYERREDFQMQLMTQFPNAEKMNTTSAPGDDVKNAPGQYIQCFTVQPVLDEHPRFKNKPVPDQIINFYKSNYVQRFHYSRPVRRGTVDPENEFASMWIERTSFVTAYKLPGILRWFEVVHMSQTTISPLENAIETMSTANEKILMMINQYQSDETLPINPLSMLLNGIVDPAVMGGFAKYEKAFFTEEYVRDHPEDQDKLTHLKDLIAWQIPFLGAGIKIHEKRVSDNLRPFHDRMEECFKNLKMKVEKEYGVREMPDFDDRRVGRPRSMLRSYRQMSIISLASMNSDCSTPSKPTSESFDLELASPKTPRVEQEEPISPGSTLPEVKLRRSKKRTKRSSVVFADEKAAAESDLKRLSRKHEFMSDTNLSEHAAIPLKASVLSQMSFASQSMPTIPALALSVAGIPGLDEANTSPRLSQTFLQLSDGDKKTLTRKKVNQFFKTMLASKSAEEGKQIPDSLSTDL
UniProt Q14147: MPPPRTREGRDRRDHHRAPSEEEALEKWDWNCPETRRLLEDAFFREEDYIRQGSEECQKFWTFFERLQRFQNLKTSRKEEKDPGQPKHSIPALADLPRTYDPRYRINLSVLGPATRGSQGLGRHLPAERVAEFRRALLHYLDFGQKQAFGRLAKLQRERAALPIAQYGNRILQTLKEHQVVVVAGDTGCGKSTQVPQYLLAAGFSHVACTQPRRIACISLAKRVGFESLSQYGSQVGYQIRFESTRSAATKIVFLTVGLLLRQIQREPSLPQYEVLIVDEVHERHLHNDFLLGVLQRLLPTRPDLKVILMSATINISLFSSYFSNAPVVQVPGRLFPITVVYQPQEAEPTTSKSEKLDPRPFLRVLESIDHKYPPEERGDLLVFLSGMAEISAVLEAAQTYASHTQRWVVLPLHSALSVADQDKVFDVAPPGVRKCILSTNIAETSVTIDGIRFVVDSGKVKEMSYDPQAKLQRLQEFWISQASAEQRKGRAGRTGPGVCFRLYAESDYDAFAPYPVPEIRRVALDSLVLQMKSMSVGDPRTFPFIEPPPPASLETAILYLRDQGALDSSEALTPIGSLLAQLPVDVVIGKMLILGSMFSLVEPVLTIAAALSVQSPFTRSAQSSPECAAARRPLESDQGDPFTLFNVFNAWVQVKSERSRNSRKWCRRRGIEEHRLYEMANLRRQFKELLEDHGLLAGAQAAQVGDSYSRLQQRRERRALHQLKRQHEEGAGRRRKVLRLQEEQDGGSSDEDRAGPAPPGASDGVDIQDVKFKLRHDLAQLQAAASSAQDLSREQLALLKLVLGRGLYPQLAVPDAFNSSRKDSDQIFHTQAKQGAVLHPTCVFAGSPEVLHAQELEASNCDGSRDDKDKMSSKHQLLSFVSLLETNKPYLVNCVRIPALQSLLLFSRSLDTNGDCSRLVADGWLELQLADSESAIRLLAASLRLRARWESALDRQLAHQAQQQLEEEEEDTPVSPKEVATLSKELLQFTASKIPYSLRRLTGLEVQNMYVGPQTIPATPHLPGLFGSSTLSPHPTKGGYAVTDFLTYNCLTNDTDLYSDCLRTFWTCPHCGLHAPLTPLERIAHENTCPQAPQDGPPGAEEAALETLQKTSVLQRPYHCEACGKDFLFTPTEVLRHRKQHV
UniProt Q14562: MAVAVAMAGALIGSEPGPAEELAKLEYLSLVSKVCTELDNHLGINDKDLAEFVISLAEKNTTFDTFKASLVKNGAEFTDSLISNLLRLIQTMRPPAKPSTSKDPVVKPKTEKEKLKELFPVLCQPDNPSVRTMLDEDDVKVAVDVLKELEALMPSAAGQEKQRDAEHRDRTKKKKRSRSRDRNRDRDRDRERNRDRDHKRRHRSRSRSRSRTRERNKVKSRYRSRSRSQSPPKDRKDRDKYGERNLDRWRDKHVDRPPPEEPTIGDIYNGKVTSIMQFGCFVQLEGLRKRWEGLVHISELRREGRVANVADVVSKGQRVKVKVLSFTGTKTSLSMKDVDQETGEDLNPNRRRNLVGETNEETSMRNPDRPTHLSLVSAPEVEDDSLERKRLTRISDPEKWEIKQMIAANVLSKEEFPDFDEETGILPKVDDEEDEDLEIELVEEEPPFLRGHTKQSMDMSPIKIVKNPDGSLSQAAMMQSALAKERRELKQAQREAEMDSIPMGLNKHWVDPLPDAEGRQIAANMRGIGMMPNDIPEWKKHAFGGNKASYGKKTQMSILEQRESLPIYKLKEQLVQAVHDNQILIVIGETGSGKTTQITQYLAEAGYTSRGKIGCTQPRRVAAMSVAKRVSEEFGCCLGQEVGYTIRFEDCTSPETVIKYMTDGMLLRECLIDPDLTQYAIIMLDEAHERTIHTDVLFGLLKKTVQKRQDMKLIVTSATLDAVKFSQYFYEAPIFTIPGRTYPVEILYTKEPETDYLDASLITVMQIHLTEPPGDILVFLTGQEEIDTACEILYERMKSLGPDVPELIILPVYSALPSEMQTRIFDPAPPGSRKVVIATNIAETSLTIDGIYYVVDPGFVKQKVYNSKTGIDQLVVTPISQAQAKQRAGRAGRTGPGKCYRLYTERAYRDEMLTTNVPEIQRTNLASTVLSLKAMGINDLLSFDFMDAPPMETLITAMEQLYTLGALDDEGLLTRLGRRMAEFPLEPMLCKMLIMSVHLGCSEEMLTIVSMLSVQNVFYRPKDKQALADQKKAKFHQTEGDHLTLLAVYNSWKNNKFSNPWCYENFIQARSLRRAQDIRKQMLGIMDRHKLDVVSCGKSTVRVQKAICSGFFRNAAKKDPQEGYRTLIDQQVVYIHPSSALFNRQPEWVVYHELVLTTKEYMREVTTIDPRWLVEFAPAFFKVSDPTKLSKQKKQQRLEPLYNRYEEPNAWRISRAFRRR
UniProt Q4LDG9: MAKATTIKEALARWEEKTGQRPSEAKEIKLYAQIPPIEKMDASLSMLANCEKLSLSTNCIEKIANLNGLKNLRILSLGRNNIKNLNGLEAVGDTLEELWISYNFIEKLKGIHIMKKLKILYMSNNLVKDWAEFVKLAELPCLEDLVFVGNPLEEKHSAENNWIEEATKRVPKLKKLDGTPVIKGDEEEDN
UniProt P52429: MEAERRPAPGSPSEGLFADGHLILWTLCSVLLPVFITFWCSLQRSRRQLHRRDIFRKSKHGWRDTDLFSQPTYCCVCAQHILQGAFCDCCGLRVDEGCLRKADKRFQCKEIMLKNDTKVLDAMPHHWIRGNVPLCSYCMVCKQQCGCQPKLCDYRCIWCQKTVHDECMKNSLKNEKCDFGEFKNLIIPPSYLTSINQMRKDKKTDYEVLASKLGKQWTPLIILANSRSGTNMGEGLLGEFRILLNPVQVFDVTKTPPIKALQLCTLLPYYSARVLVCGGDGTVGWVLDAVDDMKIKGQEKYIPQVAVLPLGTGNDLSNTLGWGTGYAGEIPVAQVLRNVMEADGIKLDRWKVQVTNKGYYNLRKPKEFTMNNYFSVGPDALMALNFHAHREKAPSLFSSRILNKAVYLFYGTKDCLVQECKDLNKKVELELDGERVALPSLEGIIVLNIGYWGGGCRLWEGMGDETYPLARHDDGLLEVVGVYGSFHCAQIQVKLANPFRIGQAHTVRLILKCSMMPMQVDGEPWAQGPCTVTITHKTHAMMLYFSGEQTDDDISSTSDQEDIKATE

[1] = compound: CCCS(=O)(=O)Nc1ccc(F)c(C(=O)c2c[nH]c3ncc(Cl)cc23)c1F
Outline: as §1

barasertib = compound: CCN(CCCOc1ccc2c(Nc3cc(CC(=O)Nc4cccc(F)c4)[nH]n3)ncnc2c1)CCOP(=O)(O)O [barasertib]
Outline: as §1

[2] = compound: CC[C@@H]1C(=O)N(C)c2cnc(Nc3ccc(C(=O)NC4CCN(C)CC4)cc3OC)nc2N1C1CCCC1
Outline: as §1

volasertib = compound: CC[C@@H]1C(=O)N(C)c2cnc(Nc3ccc(C(=O)N[C@H]4CC[C@H](N5CCN(CC6CC6)CC5)CC4)cc3OC)nc2N1C(C)C [volasertib]
Outline: as §1

[3] = compound: CCn1c(C(=O)N(C2CC2)C2CC2)cc2c3c(ncn3C)c(Nc3cc(C)n(C)n3)nc21
Outline: as §1

[4] = compound: CCn1cc(-c2ccnc3[nH]c(-c4cccc(CN(C)C)c4)cc23)c(-c2ccc(NC(=O)N(C)C)cc2)n1
Outline: as §1

[5] = compound: CN1CCC(CNc2ccc3ncc(-c4cccc(OC(F)(F)F)c4)n3n2)CC1
Outline: as §1

saracatinib = compound: CN1CCN(CCOc2cc(OC3CCOCC3)c3c(Nc4c(Cl)ccc5c4OCO5)ncnc3c2)CC1 [saracatinib]
Outline: as §1

sotrastaurin = compound: CN1CCN(c2nc(C3=C(c4c[nH]c5ccccc45)C(=O)NC3=O)c3ccccc3n2)CC1 [sotrastaurin]
Outline: as §1

Measured: log2 fold change

DMAC2L (UniProt Q99766)
inactive: vemurafenib 0.002 | [1] 0.026 | barasertib 0.065 | [2] 0.075 | volasertib -0.028 | [3] 0.021 | [4] -0.017 | [5] 0.053 | saracatinib 0.058 | sotrastaurin -0.012

DMTN (UniProt Q08495)
inactive: vemurafenib 0.041 | [1] 0.022 | barasertib -0.016 | [2] 0.077 | volasertib 0.009 | [3] -0.021 | [4] 0.042 | [5] 0.003 | saracatinib 0.003 | sotrastaurin 0.021

DHRS11 (UniProt Q6UWP2)
inactive: vemurafenib 0.015 | [1] 0.007 | barasertib 0 | [2] -0.019 | volasertib -0.026 | [3] 0.023 | [4] -0.03 | [5] 0.025 | saracatinib 0.013 | sotrastaurin 0.004

DNM1L isoform 2 (UniProt O00429)
inactive: vemurafenib -0.053 | [1] 0.001 | barasertib -0.132 | [2] -0.141 | volasertib -0.146 | [3] -0.012 | [4] -0.044 | [5] -0.06 | saracatinib 0.057 | sotrastaurin 0.086

DNAJB14 (UniProt Q8TBM8)
inactive: vemurafenib -0.028 | [1] -0.02 | barasertib 0.055 | [2] -0.055 | volasertib 0.047 | [3] -0.013 | [4] 0.118 | [5] 0.021 | saracatinib -0.037 | sotrastaurin 0.015

DNAJC2 (UniProt Q99543)
inactive: vemurafenib -0.085 | [1] 0.032 | barasertib -0.018 | [2] -0.073 | volasertib -0.023 | [3] 0.02 | [4] -0.042 | [5] -0.054 | saracatinib 0.003 | sotrastaurin 0.03

DNAAF5 (UniProt Q86Y56)
inactive: vemurafenib -0.006 | [1] -0.007 | barasertib 0.03 | [2] -0.062 | volasertib -0.06 | [3] 0.047 | [4] -0.035 | [5] -0.049 | saracatinib 0.04 | sotrastaurin 0.044

DHODH (UniProt Q02127)
inactive: vemurafenib -0.011 | [1] -0.029 | barasertib -0.032 | [2] 0.014 | volasertib 0.015 | [3] -0.01 | [4] -0.056 | [5] 0.064 | saracatinib -0.003 | sotrastaurin 0.029

DNAH8 (UniProt Q96JB1)
inactive: vemurafenib 0.121 | [1] 0.04 | barasertib 0.048 | [2] 0.16 | volasertib 0.094 | [3] -0.221 | [4] -0.206 | [5] 0.036 | saracatinib -0.005 | sotrastaurin -0.04

DNAAF2 (UniProt Q9NVR5)
inactive: vemurafenib 0.051 | [1] 0.005 | barasertib -0.016 | [2] 0.038 | volasertib 0.018 | [3] -0.022 | [4] 0.008 | [5] 0.022 | saracatinib -0.021 | sotrastaurin -0.015

DIAPH1 (UniProt O60610)
inactive: vemurafenib -0.002 | [1] -0.007 | barasertib 0.006 | [2] -0.001 | volasertib -0.002 | [3] 0.009 | [4] 0.091 | [5] -0.042 | saracatinib -0.006 | sotrastaurin -0.001

DNAJB11 (UniProt Q9UBS4)
inactive: vemurafenib 0.017 | [1] 0.002 | barasertib -0.003 | [2] 0.055 | volasertib 0.019 | [3] -0.018 | [4] -0.02 | [5] 0.042 | saracatinib 0.027 | sotrastaurin 0.046

DNAJC7 (UniProt Q99615)
inactive: vemurafenib -0.024 | [1] 0 | barasertib 0.014 | [2] -0.018 | volasertib -0.065 | [3] 0.066 | [4] -0.019 | [5] -0.091 | saracatinib -0.014 | sotrastaurin 0.006

DGKH (UniProt Q86XP1)
inactive: vemurafenib 0.128 | barasertib 0.055 | [2] 0.043 | [3] -0.267 | [4] -0.12 | [5] 0.086 | saracatinib -0.018 | sotrastaurin 0.03

DNA2 (UniProt P51530)
inactive: vemurafenib -0.094 | [2] -0.053 | [3] 0.051 | [4] 0.03 | [5] 0.022 | saracatinib 0.008 | sotrastaurin 0.073

DNMT3B (UniProt Q9UBC3)
inactive: vemurafenib 0.196 | [2] -0.21 | [3] 0.003

DOCK2 (UniProt Q92608)
inactive: vemurafenib 0.029 | [1] 0.024 | [2] -0.1 | volasertib -0.091 | [3] 0.071 | [4] -0.157 | [5] 0.085 | saracatinib 0.043 | sotrastaurin 0.063

DHX34 (UniProt Q14147)
inactive: vemurafenib 0.146 | barasertib -0.086 | [2] 0.068 | [3] -0.097 | [4] 0.16 | [5] 0.057 | saracatinib 0.005 | sotrastaurin -0.01

DHX8 (UniProt Q14562)
inactive: vemurafenib -0.103 | [1] 0.013 | barasertib 0.01 | [2] -0.047 | volasertib -0.022 | [3] 0.042 | [4] -0.024 | [5] 0.028 | saracatinib -0.004 | sotrastaurin 0.033

DNAL1 (UniProt Q4LDG9)
inactive: vemurafenib 0.026 | barasertib -0.103 | [2] 0.34 | [3] -0.03 | [4] 0.137 | [5] 0.042 | saracatinib 0.062 | sotrastaurin -0.013

DNTTIP2 (UniProt Q5QJE6)
inactive: vemurafenib 0.02 | [1] 0.088 | barasertib 0.034 | [2] 0.062 | volasertib -0.085 | [4] -0.044 | [5] 0.019 | saracatinib 0.027 | sotrastaurin 0.043

DGKE (UniProt P52429)
inactive: vemurafenib -0.11 | [2] 0.035 | [3] 0.007 | [4] -0.02 | [5] 0.209 | saracatinib -0.225

DMTN isoform 2 (UniProt Q08495)
inactive: vemurafenib 0.113 | [1] 0.131 | [2] 0.135 | volasertib -0.325 | [4] -0.124 | [5] 0.199 | saracatinib 0.117 | sotrastaurin -0.058

DLAT (UniProt P10515)
inactive: vemurafenib -0.004 | [1] 0.01 | barasertib -0.021 | [2] -0.036 | volasertib 0.023 | [3] -0.037 | [4] -0.037 | [5] 0.073 | saracatinib 0.048 | sotrastaurin -0.003

DNPEP (UniProt C9JBE1)
inactive: vemurafenib 0.137 | [1] -0.017 | barasertib -0.019 | [2] -0.033 | volasertib 0.031 | [4] -0.243 | [5] 0.094

DOT1L isoform 1 (UniProt Q8TEK3)
inactive: vemurafenib 0.052 | [2] 0.026 | saracatinib -0.035 | sotrastaurin -0.163

DOP1B (UniProt Q9Y3R5)
inactive: vemurafenib 0.021 | [1] 0.059 | volasertib 0.053 | [4] -0.321 | [5] 0.125 | sotrastaurin 0.125

5 neighbouring entries already listed, for reference:
DNMT3B (UniProt Q9UBC3)
inactive: vemurafenib 0.196 | [2] -0.21 | [3] 0.003

DOCK2 (UniProt Q92608)
inactive: vemurafenib 0.029 | [1] 0.024 | [2] -0.1 | volasertib -0.091 | [3] 0.071 | [4] -0.157 | [5] 0.085 | saracatinib 0.043 | sotrastaurin 0.063

DHX34 (UniProt Q14147)
inactive: vemurafenib 0.146 | barasertib -0.086 | [2] 0.068 | [3] -0.097 | [4] 0.16 | [5] 0.057 | saracatinib 0.005 | sotrastaurin -0.01

DHX8 (UniProt Q14562)
inactive: vemurafenib -0.103 | [1] 0.013 | barasertib 0.01 | [2] -0.047 | volasertib -0.022 | [3] 0.042 | [4] -0.024 | [5] 0.028 | saracatinib -0.004 | sotrastaurin 0.033

DNAL1 (UniProt Q4LDG9)
inactive: vemurafenib 0.026 | barasertib -0.103 | [2] 0.34 | [3] -0.03 | [4] 0.137 | [5] 0.042 | saracatinib 0.062 | sotrastaurin -0.013

Next results:

DLG5 (UniProt Q8TDM6)
inactive: vemurafenib 0.089 | barasertib 0.098 | saracatinib -0.16

DIAPH1 (UniProt H9KV28)
inactive: vemurafenib 0.098 | [1] -0.01 | barasertib 0.091 | [2] -0.049 | volasertib -0.046 | [3] -0.046 | [4] -0.07 | [5] 0.153 | sotrastaurin -0.001

DGCR2 (UniProt P98153)
inactive: vemurafenib -0.012 | [1] -0.253 | [2] 0.16 | volasertib -0.085 | [3] 0.064 | [4] 0.095 | [5] -0.048 | saracatinib 0.055

DNASE2 (UniProt O00115)
inactive: vemurafenib -0.003 | [1] 0.026 | barasertib 0.005 | [2] 0.001 | volasertib 0.029 | [3] 0.021 | [4] -0.022 | [5] 0.045 | saracatinib 0.004 | sotrastaurin -0.052

DIS3L2 (UniProt Q8IYB7)
inactive: vemurafenib 0.036 | [1] 0.055 | barasertib 0.069 | [2] -0.07 | volasertib -0.018 | [3] 0.046 | [4] -0.011 | [5] 0.013 | saracatinib 0.016 | sotrastaurin 0.09

Source: the supplement of paper PMC10849652
